Results from doi:10.1101/761346.
Results are given in words; binding and its absence hold for the method and conditions named. For some assays here: In cells and extracts the contact can be indirect. For some assays here: Where a sequence is shown, tags or fusion partners need not be part of it. Some binding calls cover weakened binding; strength is not graded here.

T1: extracellular domain of HSL2, bait (Arabidopsis thaliana) (UniProt C0LGX3)
T1 sequence: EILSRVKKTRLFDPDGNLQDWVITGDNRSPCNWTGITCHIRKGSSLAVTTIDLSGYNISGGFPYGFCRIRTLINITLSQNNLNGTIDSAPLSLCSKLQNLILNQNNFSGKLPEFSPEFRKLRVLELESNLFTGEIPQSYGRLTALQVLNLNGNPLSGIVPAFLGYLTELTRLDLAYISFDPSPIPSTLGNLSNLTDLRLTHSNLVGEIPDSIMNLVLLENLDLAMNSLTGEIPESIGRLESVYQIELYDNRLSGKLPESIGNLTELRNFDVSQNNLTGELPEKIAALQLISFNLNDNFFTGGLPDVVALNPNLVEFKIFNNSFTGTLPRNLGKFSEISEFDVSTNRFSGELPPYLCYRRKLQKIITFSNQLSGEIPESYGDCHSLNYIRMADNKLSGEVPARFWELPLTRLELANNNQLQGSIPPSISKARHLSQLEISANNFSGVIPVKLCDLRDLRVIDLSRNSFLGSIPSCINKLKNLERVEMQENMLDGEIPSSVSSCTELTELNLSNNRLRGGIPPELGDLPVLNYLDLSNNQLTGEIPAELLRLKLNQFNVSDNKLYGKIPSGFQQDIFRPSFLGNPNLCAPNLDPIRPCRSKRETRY

T2: RECEPTOR LIKE KINASE 7 (RLK7) fused to GFP (Arabidopsis thaliana) (UniProt F4I2N7)
T2 sequence: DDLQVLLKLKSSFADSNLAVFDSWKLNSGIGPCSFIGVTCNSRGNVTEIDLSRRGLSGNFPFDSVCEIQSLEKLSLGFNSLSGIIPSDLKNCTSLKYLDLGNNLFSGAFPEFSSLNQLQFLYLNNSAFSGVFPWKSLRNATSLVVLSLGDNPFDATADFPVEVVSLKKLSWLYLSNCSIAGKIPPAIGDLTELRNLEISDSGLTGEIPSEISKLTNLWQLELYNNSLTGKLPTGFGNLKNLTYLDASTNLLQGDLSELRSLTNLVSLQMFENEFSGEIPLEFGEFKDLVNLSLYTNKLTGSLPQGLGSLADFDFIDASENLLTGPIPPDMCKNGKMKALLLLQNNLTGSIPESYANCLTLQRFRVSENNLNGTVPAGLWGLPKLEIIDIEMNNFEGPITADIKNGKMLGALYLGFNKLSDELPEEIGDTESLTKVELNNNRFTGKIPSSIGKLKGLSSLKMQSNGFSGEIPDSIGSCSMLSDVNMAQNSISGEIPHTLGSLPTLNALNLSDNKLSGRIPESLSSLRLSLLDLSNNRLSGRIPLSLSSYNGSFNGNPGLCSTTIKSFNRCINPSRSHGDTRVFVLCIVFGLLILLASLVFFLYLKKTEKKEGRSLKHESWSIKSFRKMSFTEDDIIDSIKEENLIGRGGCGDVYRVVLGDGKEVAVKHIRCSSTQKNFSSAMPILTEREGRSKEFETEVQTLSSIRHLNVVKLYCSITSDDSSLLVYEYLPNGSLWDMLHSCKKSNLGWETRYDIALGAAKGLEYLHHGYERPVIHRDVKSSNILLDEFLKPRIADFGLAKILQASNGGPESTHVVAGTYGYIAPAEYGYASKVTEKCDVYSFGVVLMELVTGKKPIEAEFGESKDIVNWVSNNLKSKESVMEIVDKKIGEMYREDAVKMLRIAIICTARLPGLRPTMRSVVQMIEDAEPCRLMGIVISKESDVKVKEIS

B1: extracellular domain of RLK7, prey (domain or fragment, UniProt F4I2N7 29-608)
chain: DDLQVLLKLKSSFADSNLAVFDSWKLNSGIGPCSFIGVTCNSRGNVTEIDLSRRGLSGNFPFDSVCEIQSLEKLSLGFNSLSGIIPSDLKNCTSLKYLDLGNNLFSGAFPEFSSLNQLQFLYLNNSAFSGVFPWKSLRNATSLVVLSLGDNPFDATADFPVEVVSLKKLSWLYLSNCSIAGKIPPAIGDLTELRNLEISDSGLTGEIPSEISKLTNLWQLELYNNSLTGKLPTGFGNLKNLTYLDASTNLLQGDLSELRSLTNLVSLQMFENEFSGEIPLEFGEFKDLVNLSLYTNKLTGSLPQGLGSLADFDFIDASENLLTGPIPPDMCKNGKMKALLLLQNNLTGSIPESYANCLTLQRFRVSENNLNGTVPAGLWGLPKLEIIDIEMNNFEGPITADIKNGKMLGALYLGFNKLSDELPEEIGDTESLTKVELNNNRFTGKIPSSIGKLKGLSSLKMQSNGFSGEIPDSIGSCSMLSDVNMAQNSISGEIPHTLGSLPTLNALNLSDNKLSGRIPESLSSLRLSLLDLSNNRLSGRIPLSLSSYNGSFNGNPGLCSTTIKSFNRCINPSRSHGDTR
B2: HAESA (HAE) fused to mCherry (receptor, UniProt P47735 15-999)
chain: YLPSLSLNQDATILRQAKLGLSDPAQSLSSWSDNNDVTPCKWLGVSCDATSNVVSVDLSSFMLVGPFPSILCHLPSLHSLSLYNNSINGSLSADDFDTCHNLISLDLSENLLVGSIPKSLPFNLPNLKFLEISGNNLSDTIPSSFGEFRKLESLNLAGNFLSGTIPASLGNVTTLKELKLAYNLFSPSQIPSQLGNLTELQVLWLAGCNLVGPIPPSLSRLTSLVNLDLTFNQLTGSIPSWITQLKTVEQIELFNNSFSGELPESMGNMTTLKRFDASMNKLTGKIPDNLNLLNLESLNLFENMLEGPLPESITRSKTLSELKLFNNRLTGVLPSQLGANSPLQYVDLSYNRFSGEIPANVCGEGKLEYLILIDNSFSGEISNNLGKCKSLTRVRLSNNKLSGQIPHGFWGLPRLSLLELSDNSFTGSIPKTIIGAKNLSNLRISKNRFSGSIPNEIGSLNGIIEISGAENDFSGEIPESLVKLKQLSRLDLSKNQLSGEIPRELRGWKNLNELNLANNHLSGEIPKEVGILPVLNYLDLSSNQFSGEIPLELQNLKLNVLNLSYNHLSGKIPPLYANKIYAHDFIGNPGLCVDLDGLCRKITRSKNIGYVWILLTIFLLAGLVFVVGIVMFIAKCRKLRALKSSTLAASKWRSFHKLHFSEHEIADCLDEKNVIGFGSSGKVYKVELRGGEVVAVKKLNKSVKGGDDEYSSDSLNRDVFAAEVETLGTIRHKSIVRLWCCCSSGDCKLLVYEYMPNGSLADVLHGDRKGGVVLGWPERLRIALDAAEGLSYLHHDCVPPIVHRDVKSSNILLDSDYGAKVADFGIAKVGQMSGSKTPEAMSGIAGSCGYIAPEYVYTLRVNEKSDIYSFGVVLLELVTGKQPTDSELGDKDMAKWVCTALDKCGLEPVIDPKLDLKFKEEISKVIHIGLLCTSPLPLNRPSMRKVVIMLQEVSGAVPCSSPNTSKRSKTGGKLSPYYTEDLNSV

Assays:
[1] = biological target: T1, extracellular domain of HSL2, bait (Arabidopsis thaliana); assay: extracellular interaction assay
[2] = biological target: T2, RECEPTOR LIKE KINASE 7 (RLK7) fused to GFP (Arabidopsis thaliana); assay: FRET or BRET

Binder | binding [1] | binding [2]
B1 | binds | –
B2 | – | no binding
